From paper doi:10.1101/334276
Results are given in words; binding and its absence hold for the method and conditions named. Binding seen in cells or lysates may run through a third protein. Binding can be weak; no strength is given. Tags and fused reporters may be left off the sequences shown.

Biological target: T1, V5-pRb (pLX304-pRb-V5) (UniProt P06400)
T1 sequence: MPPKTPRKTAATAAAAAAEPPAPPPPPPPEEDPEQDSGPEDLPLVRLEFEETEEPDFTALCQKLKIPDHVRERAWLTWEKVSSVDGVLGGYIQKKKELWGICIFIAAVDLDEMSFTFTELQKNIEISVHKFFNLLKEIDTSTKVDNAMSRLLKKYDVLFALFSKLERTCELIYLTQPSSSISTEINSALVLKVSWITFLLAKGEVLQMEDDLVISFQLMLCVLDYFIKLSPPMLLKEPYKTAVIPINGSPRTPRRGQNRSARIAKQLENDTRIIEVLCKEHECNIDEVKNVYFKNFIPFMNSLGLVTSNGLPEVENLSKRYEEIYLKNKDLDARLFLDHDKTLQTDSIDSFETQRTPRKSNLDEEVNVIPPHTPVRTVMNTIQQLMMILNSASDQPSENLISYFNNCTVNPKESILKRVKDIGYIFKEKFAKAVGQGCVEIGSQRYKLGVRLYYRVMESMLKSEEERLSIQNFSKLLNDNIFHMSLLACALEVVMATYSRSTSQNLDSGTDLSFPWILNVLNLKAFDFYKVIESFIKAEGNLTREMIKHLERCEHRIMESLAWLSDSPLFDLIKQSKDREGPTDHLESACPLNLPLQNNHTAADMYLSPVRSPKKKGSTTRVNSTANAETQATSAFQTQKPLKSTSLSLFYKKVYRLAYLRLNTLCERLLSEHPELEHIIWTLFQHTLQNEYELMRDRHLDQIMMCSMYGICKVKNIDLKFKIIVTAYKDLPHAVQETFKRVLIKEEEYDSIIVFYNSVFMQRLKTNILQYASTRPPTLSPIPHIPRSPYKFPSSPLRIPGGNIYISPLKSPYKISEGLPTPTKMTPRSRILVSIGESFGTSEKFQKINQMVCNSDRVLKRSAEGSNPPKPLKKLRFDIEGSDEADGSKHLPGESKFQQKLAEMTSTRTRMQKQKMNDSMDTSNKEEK
Assay: co-IP

“luciferase-fused PP2A (pCIneoLuc-PP2A) (from UniProt P67775) (enzyme)” was tested, and the binding was “binds”.
